Like-named read-outs stand apart in the source and are kept apart here.
What was measured:
[1] = values reported in human studies; cited from earlier work
in vivo = settings: albino, rabbit, plasma, po, 10 mg/kg
[2] = share of elimination; cited from earlier work
[3] = rabbits, single oral dose 10 mg kg^−1, n = 5, mean; unit as in Table 4

AUC(0-inf) (in vivo): 6500 ng·h/mL
AUC(0-t) (in vivo): 6020 ± 1120 ng·h/mL
MRT inf (in vivo): 15.5 h
Tmax (in vivo): 3.6 h
AUC0→t [3]: 6018 ng/mL/h
AUC0→∞ [3]: 6495 ng/mL/h
SMILES: CC(C)(C(=O)O)c1ccc(C(O)CCCN2CCC(C(O)(c3ccccc3)c3ccccc3)CC2)cc1 (centres unmarked) [fexofenadine, Fexofenadine]
Tmax [1]: 0.83 to 1.33 h
renal excretion [2]: 11%

Source: article PMC12054466 (RSC Advances, 2025)
